Results as given in patent US9657260B2, “Method and system for continous monitoring of toxicity” (Yissum Research Development Company of The Hebrew …, priority 2014, dated 2017).
Where two headings read alike, the source gives them in different places.

Legend:
HepG2/C3A cells = conditions: for oxygen uptake, % of normal respiration: 24 hrs exposure
[1] = system: primary human hepatocytes; conditions: read-out: TC50 in primary hepatocytes; cited from earlier work
in vitro = conditions: human

CCCCc1oc2ccccc2c1C(=O)c1cc(I)c(OCCN(CC)CC)c(I)c1 [amiodarone]
oxygen uptake, % of normal respiration (HepG2/C3A cells; 200 μM amiodarone): 84% | oxygen uptake, % of normal respiration (HepG2/C3A cells; 500 μM amiodarone): 42% | oxygen uptake, % of normal respiration (HepG2/C3A cells; 1000 μM amiodarone): 0% | TC50 (HepG2/C3A cells; human, 24 h): 0.000425 µM | CC50 [1]: 100 µM | CC50 at 24 h (in vitro): 425 µM
